Values from PubChem BioAssay AID504793 (Drosophila RNAi Screening Center, 2011)
Purpose: 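Knock-downs allowing continued mitosis even though DNA is damaged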 (primary screen). System: Drosophila S2R+ cells. Knock-down reagent: long dsRNA against Drosophila genes, about 0.25 µg dsRNA per well. Duration: 4 days of dsRNA, then 4 hours of drug before read-out. Challenge: doxorubicin 0.5 µM for 4 hours to cause double-strand breaks, in cells also given a low, harmless dose of dsRNA against nbs to sensitise the assay. Detection: 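Mitotic index as the number of phospho-histone H3-positive cells in each well following doxorubicin, given as raw counts without normalisation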. Reading the numbers: mitotic cells: higher = more cells in mitosis, weaker G2 arrest. Rule for the call: 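Genes are called active only when high mitotic counts were reproduced with independent dsRNAs and mitosis was checked for delay without damage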. Calls: active = confirmed in follow-up tests; inactive = not confirmed.
The deposit covers about 23,000 reagents; shown is a random part of those with a known target gene and a result. Over the whole deposit, 62 (0.27%) got an active call. 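Calls come from follow-up tests whose scores are not deposited, so confirmed genes may have low counts here; counts are not normalised per plate.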 The raw values are shown without normalisation. Unmarked entries are inactive. No sequences are given here.

With knock-down of CG42342 [DRSC13165] the results were mitotic cells, replicate 1 = 4. Silencing of CG42342 [DRSC15010] gave: mitotic cells, replicate 1 = 7. For CG42342 [DRSC15011], the entry reads mitotic cells, replicate 1 = 8. CG42342 [DRSC15012] scored mitotic cells, replicate 1 = 4. Silencing of CG42342 [DRSC21791] resulted in: mitotic cells, replicate 1 = 17. CG42342 [DRSC22861] scored mitotic cells, replicate 1 = 6.

With knock-down of CG42342 [DRSC23112], the screen gave mitotic cells, replicate 1 = 12. CG42342 [DRSC24200] showed mitotic cells, replicate 1 = 9. Against CG42342 [DRSC25912], the entry reads mitotic cells, replicate 1 = 8. For CG42342 [DRSC28157] the deposit lists mitotic cells, replicate 1 = 5. Tsp42Ep (Tetraspanin 42Ep) [DRSC06871] scored mitotic cells, replicate 1 = 13. CG18599 [DRSC23121] scored mitotic cells, replicate 1 = 5.

For CG18599 [DRSC25823], the entry reads mitotic cells, replicate 1 = 5. Depletion of Art1 (Arginine methyltransferase 1) [DRSC16063] resulted in: mitotic cells, replicate 1 = 4.
